The record followed here is paper PMC12040169 (PLOS Biology, 2025).

The list shows a part of the results.

This test has as its system T1, CTL2-GFP (C. trachomatis L2/434/Bu, GFP-expressing).
T1 construct: L2/434/Bu, GFP-expressing
Also noted: species or system HeLa; Intracellular C. trachomatis growth in HeLa cells, bulk GFP fluorescence relative to DMSO. As to conditions: bulk GFP, single well; 28.5 h, 10 µM; inhibitor.
As for `CC(C)CCNC(=O)N1CCN(c2ccccc2)CC1` [CBK155203], the “% of control remaining” value is 118.025%.
Regarding `COc1cc(C(O)c2cc3c(cc2CO)OCO3)cc(OC)c1OC` (stereo not shown) [CBK200098], the “% of control remaining” value is given as 123.424%.
With `COC(=O)CSc1nnc(COc2ccc3c(c2)OCO3)n1-c1ccccc1` [CBK266139] the figure was 117.171%; with `COc1cc(Nc2cncc(-c3cccs3)n2)cc(OC)c1OC` [CBK065663], 107.665%.
With `COc1ccccc1-c1cc(Nc2cccc(N(C)C)c2)ncn1` [CBK091011] the figure was 136.026%; with `CN(C)c1ccc(-c2nnc([C@H]3CCN(C(=O)CCC(=O)O)C3)o2)cc1` [CBK289408], 106.177%.
Take `COc1ccc2[nH]cc(CC(=O)N3CCCC4(CCN(Cc5ccccc5)C4)C3)c2c1` (stereo not shown) [CBK136883]: the “% of control remaining” value was determined as 118.425%.
With `CN(C)CCN(C)c1nc(-c2ccc(F)c(Cl)c2)cn2ccnc12` [CBK038007], the “% of control remaining” value is recorded as 94.899%.
Then `CCOC(=O)c1ccc(NC(=O)C(C)Sc2nc3ccccc3[nH]2)cc1` (stereo not shown) [CBK267330], with 154.781%; and `O=C(O)c1cc(S(=O)(=O)Nc2ccccc2C(=O)O)ccc1Br` [CBK262371], with 126.226%; and `CCN1CCCN(c2ccnc(OCCN3CCOCC3)n2)CC1` [CBK083807], with 81.5905%.
Then `CCC(CC)Cn1c(-c2cccnc2)nc2cc(S(=O)(=O)NCCO)ccc21` [CBK003450], with 139.352%.
With `COc1ccccc1Nc1nc(N)nc(CSc2nc3ccccc3s2)n1` [CBK266747] the figure was 159.522%.
For `O=C(Nc1ccc(-c2ccoc2)cc1C(=O)O)OCc1ccc([N+](=O)[O-])cc1` [CBK000141D], the “% of control remaining” value is given as 123.601%.
With `O=C(c1ccco1)N1CCN(S(=O)(=O)c2ccc(Cl)cc2)CC1` [CBK068411] the figure was 91.3445%.
With `CC(=O)N(C)c1ncc(Br)cc1C(=O)N(C)C` [CBK076533] the figure was 196.881%; with `N=c1sc(Cc2cc(Cl)ccc2Cl)cn1CC(=O)c1ccccc1` [CBK263584B], 124.781%.
Then `C[C@@H]1CN(C(=O)c2cc3ccccc3n2C)C[C@H](C)O1` [CBK200234], with 126.696%.
In the case of `Nc1cccc(-c2cncc(Nc3ccccc3)n2)c1` [CBK065265], the “% of control remaining” value turned out to be 218.324%.
For the compound `COc1ccccc1Oc1ccc(C(F)(F)F)cc1[N+](=O)[O-]` [CBK002845], the “% of control remaining” value came to 99.3288%.
Then `Nc1nn2c(c1Cc1c(Cl)cccc1Cl)OCC2` [CBK088759], with 128.239%; and `CN1CCC(NC2(Cc3cc(-c4ccccn4)on3)COC2)CC1` [CBK289249], with 179.009%; and `O=C(Nc1ccc(Cl)cc1)NC(C(=O)O)c1ccccc1` (stereo not shown) [CBK267405], with 100.629%.
With `CCc1cccc(CC)c1NC(=O)CN(c1cccc(Cl)c1Cl)S(C)(=O)=O` [CBK265934] the figure was 122.402%.
Then `CCOC(=O)Cc1csc(NS(=O)(=O)c2cn(C)cn2)n1` [CBK000888], with 104.016%; and `Cc1c(C)n(CC(O)CN2C(=O)c3ccccc3S2(=O)=O)c2ccccc12` (stereo not shown) [CBK263960], with 100%; and `COc1cc(CNCc2ccccn2)ccc1OCc1cccc(Cl)c1` [CBK269877C], with 115.22%.
With `Nc1ccc2cc(-c3cccc(OCc4ccccc4)c3)cnc2n1` [CBK081172], the “% of control remaining” value is reported as 100.437%.
As to `CCCC/C=C/c1cnc(N)c(N2CCOCC2)n1` [CBK063398], the “% of control remaining” value turned out to be 199.304%.
Then `CS(=O)(=O)c1ccc(CN2CCC3(CCN(Cc4ccccc4)CC3)C2)cc1` [CBK144066T], with 100%; and `O=C(NCc1ccccc1OC1CCNC1)c1cnccn1` (stereo not shown) [CBK029462T], with 139.585%.
With `C=C[C@H]1C[N@@]2CC[C@H]1C[C@@H]2CNS(=O)(=O)c1cccc(C#N)c1` [CBK288750] the figure was 107.552%; with `CN(Cc1cnn(C)c1)C(=O)C1CCCN1Cc1ccccn1` (stereo not shown) [CBK305092], 91.4158%.
With `COc1ccc(OC(=O)N2CCC(n3c(=O)[nH]c4ccccc43)CC2)cc1` [CBK149868] the figure was 148.915%.
For `COc1ccccc1N1CCN(C2CCN(S(=O)(=O)c3ccc(NC(C)=O)cc3)CC2)CC1` [CBK264688], the “% of control remaining” value worked out at 124.274%.
With `CC(C)c1ccccc1OCC(=O)N1CCCc2c(cnn2C)C1` [CBK285287] the figure was 99.9731%.
For `COc1ccccc1CNCc1ccccc1OC` [CBK262168], the “% of control remaining” value was determined as 100%.
Then `Cc1ccc(C(=O)N/C(=C\c2ccccc2F)c2n[nH]c(=S)[nH]2)cc1` [CBK263136], with 107.807%.
Then `CCCN(C(=O)C1CC1)c1nc2c(s1)CCc1c-2cnn1C` [CBK281930], with 102.116%; and `N#CC1(NC(=O)CN2CCOC(Cn3cccn3)C2)CCCCC1` (stereo not shown) [CBK305268], with 135.009%; and `Cc1cccnc1NC(=O)COc1ccc(Cl)cc1Cl` [CBK262154], with 92.5341%.
With `CCn1c(N2CCC(C(=O)NCC3CC3)CC2)nc2ccccc21` [CBK283983] the figure was 96.5003%.
For the compound `COc1ccc(C)cc1C1(CNC(=O)C2CCC(=O)N2)CCOCC1` (stereo not shown) [CBK304967], the “% of control remaining” value is listed as 117.567%.
Then `Cc1cc(NC(=O)Cc2ccccc2)nc2c1c(=O)oc1ccccc12` [CBK291127], with 114.562%; and `COc1ccc(-c2cc(C(=O)Nc3ccc(S(N)(=O)=O)cc3)c3ccccc3n2)cc1OC` [CBK263635], with 100%; and `COc1ccc(CN2CCC(Cc3ccccc3-c3cccc(F)c3)(C(N)=O)CC2)cc1` [CBK286277], with 153.309%.
Then `CCC(c1ccccc1)N1CCN(Cc2noc(C)n2)CC1` (stereo not shown) [CBK305084], with 80.3646%; and `O=C(C1=C(O)C(=O)N(Cc2ccncc2)C1c1cccc(OCc2ccccc2)c1)c1cccs1` (stereo not shown) [CBK266247], with 139.23%; and `CC1(C)CC(=O)C2=C(C1)NC(Nc1nc3ccccc3s1)=NC2c1cccnc1` (stereo not shown) [CBK270025], with 103.221%.
In the case of `Cc1ccnc2nc(C(=O)OCC(=O)Nc3ccc4c(c3)CCC4)nn12` [CBK305853], the “% of control remaining” value stood at 101.06%.
In the case of `Cc1nn(CC(C)C(=O)NCCN2CCC(C)CC2)c(C)c1Cl` (stereo not shown) [CBK281570], the “% of control remaining” value is 120.459%.
For `COc1cc(OC)nc(CN2C(=O)CC3(C2=O)C(=O)N(CCCN(C)C(=O)c2ccco2)c2ccc(F)cc23)n1` (stereo not shown) [CBK076006], the “% of control remaining” value is reported as 112.851%.
With `COc1ccc(N2CC(C(=O)N(C)CC(F)(F)F)CC2=O)cc1` (stereo not shown) [CBK281510] the figure was 139.764%.
With `O=C(O)CC1SC(Nc2ccc(F)cc2F)=NC1=O` (stereo not shown) [CBK200115] the figure was 114.112%; with `COc1ccc(-c2ccc(=O)n3c2[C@@H]2C[C@@H](CN(C(=O)NC4CCCCC4)C2)C3)cc1` [CBK289189], 152.608%; with `Cc1ccc(CC(=O)N2CCC(Cc3ccccc3-c3ccccc3C)(C(N)=O)CC2)cc1` [CBK285727], 96.1603%.
Then `O=C(Nc1ccc2oc(-c3cccnc3)nc2c1)c1ccc(N2CCOCC2)c([N+](=O)[O-])c1` [CBK268664], with 83.2987%.
`CC(C)c1ccc(C(C)NC(=O)Cn2cccc(C(=O)NC3CCCCC3)c2=O)cc1` (stereo not shown) [CBK286044]: the “% of control remaining” value was determined as 107.503%.
With `COc1ccc(C(C)C)cc1-c1nc(N)cc2cccnc12` [CBK081178] the figure was 94.0635%.
Then `Cc1c(-c2cccc(NC(=O)c3ccccc3)c2)nc2ncccn12` [CBK287504], with 142.248%.
Then `Cc1cccc(-n2ncc3c(NCCCN4CCOCC4)ncnc32)c1` [CBK265710], with 202.778%.
For the compound `CCC1CCCCN1C(=O)c1ccc(C(F)(F)F)cc1` (stereo not shown) [CBK081165], the “% of control remaining” value stood at 133.361%.
As for `CN(C)C1=NC(N(C)C)=NP(N(C)C)(N(C)C)=N1` [CBK261057], the “% of control remaining” value is given as 102.435%.
With `CCC(C)NC(=O)CSc1nnc(-c2cccs2)n1CC` (stereo not shown) [CBK296960] the figure was 97.4605%; with `Cc1c(C(=O)N(C)Cc2csc3ccccc23)nnn1C1CCNCC1` [CBK304103], 97.8304%.
Then `Cc1cc2c(cc3c(=O)n(CC(=O)NC4CCC4)nc(C)n32)s1` [CBK284118], with 106.052%.
With `CCCCN(CCCC)c1nccnc1Cl` [CBK001576], the “% of control remaining” value is 103.881%.
With `CC(=O)Nc1ccc(NC(=O)/C=C/c2ccc(Cl)cc2)cc1` [CBK264766] the figure was 86.8877%; with `O=C(CCc1nc2ccccc2c(=O)[nH]1)N1CCN(Cc2ccc(Cl)s2)CC1` [CBK296937], 117.243%; with `Cc1cccn2c(CN3CC(O)C3)c(C(=O)N3CCCCC3)nc12` [CBK306662], 127.646%.
Then `O=C(O)c1cc(S(=O)(=O)NC(CO)C(O)c2ccc([N+](=O)[O-])cc2)ccc1Br` (stereo not shown) [CBK262515], with 122.295%.
For the compound `Cc1ccc(-n2nnc3c(SCC(=O)Nc4ccc(F)cc4)ncnc32)cc1` [CBK287542], the “% of control remaining” value came to 116.527%.
Then `Cc1cc(N2CCN(C(=O)CCc3ccco3)CC2)nc(C(C)C)n1` [CBK305367], with 109.573%; and `CC(NC(=O)n1ccc2c(N3CCNCC3)cccc21)c1ccccc1` (stereo not shown) [CBK003729C], with 144.274%.
Then `CCN1C(=O)/C(=C\NN=C2CCCC2)c2ccc(C3=NNC(=O)CC3)cc21` [CBK263515], with 100%; and `COc1ccc(-c2nc(=S)c3c(n2CCCO)CCCC3)cc1` [CBK027898], with 132.478%; and `CCCS(=O)(=O)NC1CC(C)(C)Cc2c1cnn2-c1ccc(OC)cc1` (stereo not shown) [CBK306730], with 118.525%.
Then `Cc1ccc(S(=O)(=O)N2CCN(CCC(=O)O)CC2)cc1C` [CBK269416], with 105.031%.
On to `O=C(c1ccoc1)N1CCC2(CCCN(Cc3c(F)cccc3F)C2)C1` (stereo not shown) [CBK132806], for which the “% of control remaining” value is on record as 68.9614%.
